Values of other authors as cited in patent US20080246006A1, “Cdte/Gsh Core-Shell Quantum Dots” (AGENCY FOR SCIENCE, TECHNOLOGY AND RESEARCH, priority 2005, published 2008).
At least one structure is not confirmed: it was looked up by name or label, or the drawing left a doubt.

Conditions: fluorescein solution in basic ethanol

## O=C1OC2(c3ccc(O)cc3Oc3cc(O)ccc32)c2ccccc21 [fluorescein]
  quantum yield of reference solution: 0.97
